Results reported in paper PMC6697681, “The predominance of nucleotidyl activation in bacterial phosphonate biosynthesis” (Nature Communications, 2019).
Results are given in words; binding and its absence hold for the method and conditions named.

Target: LicC from Streptococcus pneumoniae (Spn-LicC), phosphocholine cytidylyltransferase (Streptococcus pneumoniae) (UniProt Q8DPI6)
Assay: dynamic light scattering; 20 µl of freshly purified protein (8 mg/ml) at 20 °C, DynaPro NanoStar; self-association (oligomeric state); both purified

binding: no binding (tested: 8 mg/ml)
B1: LicC from Streptococcus pneumoniae (Spn-LicC), phosphocholine cytidylyltransferase (enzyme, UniProt Q8DPI6 2-229)
chain: KAIILAAGLGTRLRPMTENTPKALVQVNQKPLIEYQIEFLKEKGINDIIIIVGYLKEQFDYLKEKYGVRLVFNDKYADYNNFYSLYLVKEELANSYVIDADNYLFKNMFRNDLTRSTYFSVYREDCTNEWFLVYGDDYKVQDIIVDSKAGRILSGVSFWDAPTAEKIVSFIDKAYASGEFVDLYWDNMVKDNIKELDVYVEELEGNSIYEIDSVQDYRKLEEILKNEN
